# Data as given in the supplement of paper PMC7024190.
# The list shows a part of the results. Repeats in this data set agree poorly, so a single value says little.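 A first-round screen of about ten thousand compounds sought those raising reporter output, using human embryonic kidney cells briefly transfected with a plasmid carrying a Renilla luciferase gene driven by the HSV-TK promoter.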
# Tests used:
# Experiment in all cases: log relative Renilla luciferase luminescence (reporter expression vs reference, reference not stated) (log (base not stated)); higher = higher recombinant reporter expression
# Settings in all cases: 10 µM; time after transfection 48 h
# HEK 293FT [1] = test system: HEK 293FT
# HEK 293FT [2] = test system: HEK 293FT; remark: listed apart in the source
# Procedure: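 HEK 293FT cells transiently transfected with pRL-TK (Renilla luciferase) were treated with compounds at 10 uM and luminescence was read about 42 h later. Values are log relative Renilla luminescence (log base and reference not stated). Single-pass screen; 2080 natural products library.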
# HEK 293FT [3] = test system: HEK 293FT; remark: listed apart in the source
structure (smiles),measurement,setting,value
O=C(c1ccc(Cl)cc1)c1cc(NC(=O)c2cc(Cl)cc(Br)c2O)ccc1Cl [Bromoxan],log,HEK 293FT [1],0.0502
COc1ccc(/C=C/C(=O)O)cc1O [Isoferulic acid],log,HEK 293FT [2],-0.0776
CC(=O)CCCCn1c(=O)c2c(ncn2C)n(C)c1=O [Pentoxifylline],log,HEK 293FT [3],-0.22
C=C(CC[C@@H](C)[C@H]1CC[C@@]2(C)[C@@H]3CC[C@H]4[C@](C)(C(=O)O)[C@@H](O)C[C@H](O)[C@@]45C[C@@]35CC[C@]12C)C(C)C [23-deoxojessic acid],log,HEK 293FT [2],0.0737
COC(=O)C1=CO[C@H](C)[C@H]2CN3CCc4c([nH]c5ccccc45)[C@@H]3C[C@H]12 [Mayumbine],log,HEK 293FT [2],0.168
C/C=C/c1ccc2c(c1)[C@H](C)[C@@H](c1ccc(O)cc1)O2 [(+)-Conocarpan],log,HEK 293FT [2],-0.157
C=C1CC[C@@H]2[C@](C)(CCC[C@]2(C)C(=O)O)[C@H]1CCC1=CCOC1=O [Pinusolidic acid],log,HEK 293FT [2],0.132
C[C@@H]1CN2[C@H]3[C@@H]1CC[C@]31CCC(=O)O[C@]1(C)[C@H]1CC[C@H]3CCC=C3[C@@H]12 [Deoxycalyciphylline B],log,HEK 293FT [2],0.125
C=C(C)[C@@H]1CC[C@]2(C)[C@H](CC[C@@H]3[C@@H]([C@]4(C)CCC(O)(C(C)(C)O)O4)CC[C@]32C)[C@@]1(C)CCC(=O)O (some centres not stated) [Aglinin A],log,HEK 293FT [2],0.156
O=C(O)c1c[nH]c2ccccc12 [1H-Indole-3-carboxylic acid],log,HEK 293FT [2],-0.121
O=C1OCC=C1[C@H]1CCc2ccc3c(c2C1)[C@H](c1ccoc1)OC3=O [Tilifodiolide],log,HEK 293FT [2],-0.127
CCCCCCCCCCCCCCCCCCCCCCCCCCCC(=O)OCCc1ccc(O)cc1 [Bongardol],log,HEK 293FT [2],-0.142
C/C(=C/CC[C@@H](C)[C@H]1CC[C@@]2(C)C3=C(CC[C@]12C)[C@@]1(C)CCC(=O)C(C)(C)[C@@H]1CC3=O)C(=O)O [Ganoderic acid DM],log,HEK 293FT [2],0.228
COc1cc2c(c(O)c1OC)-c1c(cc3c(c1OC)OCO3)CC(C)C(C)C2 (stereo not drawn) [R(+)-Gomisin M1],log,HEK 293FT [2],-0.331
"Oc1cc(O)c2c(c1)O[C@H](c1cc(O)c(O)c(O)c1)[C@H](O)C2 [3,3',4',5,5',7-Hexahydroxyflavan]",log,HEK 293FT [2],0.272
COc1cc2c(c(OC)c1OC)-c1c(cc(OC)c(OC)c1OC)C[C@](C)(O)[C@@H](C)C2 [Schizandrin],log,HEK 293FT [2],-0.0903
COc1cc([C@H]2Oc3c(OC)cc4ccc(=O)oc4c3O[C@@H]2CO)cc(OC)c1O [Cleomiscosin C],log,HEK 293FT [2],0.141
CC1(C)[C@H](O)CC[C@]2(C)[C@H]3CC[C@@H]4[C@@H]([C@]5(C)CCC(=O)O5)CC[C@@]4(C)[C@]3(C)CC[C@@H]12 [Cabraleahydroxylactone],log,HEK 293FT [2],-0.157
CC(C)(O[C@@H]1O[C@H](CO)[C@@H](O)[C@H](O)[C@H]1O)[C@H]1Oc2cc3oc(=O)ccc3cc2[C@H]1O [Smyrindioloside],log,HEK 293FT [2],0.316
"CC[C@H](CC[C@@H](C)[C@H]1C(O)C[C@H]2[C@@H]3C(O)C=C4CC(O)CC[C@]4(C)[C@H]3CC[C@]12C)C(C)C (some centres not stated) [3,7,16-Trihydroxystigmast-5-ene]",log,HEK 293FT [2],-0.125
C=Cc1cncc2c1CCOC2=O [Gentianine],log,HEK 293FT [2],0.156
CC[C@H](C)C(=O)N[C@H]1CCCN1C(=O)/C=C/c1ccccc1 [Odorine],log,HEK 293FT [2],9.38e-05
CC1(C)CC[C@]2(C)CC[C@]3(C)C(=C2C1)CC[C@@H]1[C@@]2(C)CC[C@H](O)C(C)(C)[C@@H]2CC[C@]13C [13(18)-Oleanen-3-ol],log,HEK 293FT [2],0.012
C=CC(C)(C)c1[nH]c2ccccc2c1/C=C1\NC(=O)[C@H](C)NC1=O [Neoechinulin A],log,HEK 293FT [2],-0.222
COC(=O)c1nccc2c1[nH]c1ccccc12 [1-Methoxycarbonyl-beta-carboline],log,HEK 293FT [2],-0.0633
COc1c2ccoc2c(Oc2c3ccoc3c(O)c3oc(=O)ccc23)c2oc(=O)ccc12 [Rivulobirin B],log,HEK 293FT [2],-0.0599
COC(=O)C[C@H](O)C(=O)O [Malic acid 4-Me ester],log,HEK 293FT [2],-0.17
COc1cc([C@H]2OC[C@H]3[C@@H]2CO[C@@H]3c2ccc(OC(C)=O)c(OC)c2)ccc1OC(C)=O [(+)-Pinoresinol diacetate],log,HEK 293FT [2],0.0724
COC(=O)[C@@H](Cc1ccc(O)c(O)c1)OC(=O)/C=C/c1ccc(O)c(O)c1 [Methyl rosmarinate],log,HEK 293FT [2],0.0193
CC(C)C1=C(O)C(=O)C2=C(C1=O)[C@H](O)C[C@H]1C(C)(C)CCC[C@]21C [Horminone],log,HEK 293FT [2],0.212
CC(=O)Oc1ccc(-c2oc3cc(OC(C)=O)cc(OC(C)=O)c3c(=O)c2OC(C)=O)cc1 [Kaempferol tetraacetate],log,HEK 293FT [2],-0.386
"Cc1c(C(=O)O)c(=O)c2ccccc2n1C [1,4-Dihydro-1,2-dimethyl-4-oxo-3-quinolinecarboxylic acid]",log,HEK 293FT [2],-0.172
"COc1cc(OC)c2ccc(=O)oc2c1OC/C=C(\C)CCC=C(C)C [8-Geranyloxy-5,7-dimethoxycoumarin]",log,HEK 293FT [2],-0.0232
"COc1cc(-c2oc3c(OC)c(OC)cc(OC)c3c(=O)c2OC)cc(OC)c1OC [3',4',5',3,5,7,8-Heptamethoxyflavone]",log,HEK 293FT [2],-0.188
C=C1CC[C@@H](O)[C@]2(C)CC[C@H]3C(=C)C(=O)O[C@@H]3[C@@H]12 [Reynosin],log,HEK 293FT [2],-0.632
C=C1CC[C@H]2C(=C)CC[C@H]3C(=C)C(=O)O[C@@H]3[C@@H]12 [Dehydrocostus lactone],log,HEK 293FT [2],-0.189
COc1ccc(-c2cc(=O)c3c(O)c(OC)c(OC)cc3o2)cc1O [Eupatorin],log,HEK 293FT [2],0.129
Cc1cc2c(cc1O)[C@@](C)(O)C(=O)C=C2C(C)C [Lacinilene C],log,HEK 293FT [2],0.455
O=C(O)[C@@H]1CCCN1 [Proline],log,HEK 293FT [2],0.115
COc1ccc([C@@]23Oc4cc(OC)cc(OC)c4[C@]2(O)[C@H](O)[C@H](C(=O)N(C)C)[C@H]3c2ccccc2)cc1 [Rocaglamide],log,HEK 293FT [2],-1.61
Oc1ccc2c(c1)OC[C@H]1c3cc4c(cc3O[C@@H]21)OCO4 [(-)-Maackiain],log,HEK 293FT [2],-0.106
C=Cc1ncc(OC)c2c1[nH]c1ccccc12 [Dehydrocrenatine],log,HEK 293FT [2],0.335

# 3 entries from above, with tabs:
structure (smiles)	measurement	setting	value
C/C=C/c1ccc2c(c1)[C@H](C)[C@@H](c1ccc(O)cc1)O2 [(+)-Conocarpan]	log	HEK 293FT [2]	-0.157
CCCCCCCCCCCCCCCCCCCCCCCCCCCC(=O)OCCc1ccc(O)cc1 [Bongardol]	log	HEK 293FT [2]	-0.142
C=Cc1cncc2c1CCOC2=O [Gentianine]	log	HEK 293FT [2]	0.156
